For assay [1], the target named is T1, SMAD Family Member 4 (human (endogenous in HCT116 and LoVo)), Q13485.
T1 chain: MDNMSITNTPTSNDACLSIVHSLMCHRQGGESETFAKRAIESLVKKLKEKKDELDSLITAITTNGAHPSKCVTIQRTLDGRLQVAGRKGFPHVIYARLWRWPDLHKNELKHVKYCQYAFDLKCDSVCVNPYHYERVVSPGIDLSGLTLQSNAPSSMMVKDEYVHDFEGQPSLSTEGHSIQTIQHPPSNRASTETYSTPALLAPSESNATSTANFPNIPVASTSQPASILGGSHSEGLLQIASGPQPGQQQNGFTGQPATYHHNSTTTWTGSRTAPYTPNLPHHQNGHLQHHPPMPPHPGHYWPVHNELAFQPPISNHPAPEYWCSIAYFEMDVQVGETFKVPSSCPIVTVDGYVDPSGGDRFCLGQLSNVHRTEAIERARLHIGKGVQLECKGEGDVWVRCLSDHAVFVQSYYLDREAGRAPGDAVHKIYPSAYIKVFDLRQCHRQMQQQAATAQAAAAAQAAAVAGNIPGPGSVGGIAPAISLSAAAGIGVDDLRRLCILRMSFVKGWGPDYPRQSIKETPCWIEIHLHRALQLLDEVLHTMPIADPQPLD
The assay is described as follows: co-IP; co-immunoprecipitation of SMAD2 and SMAD4, both directions, in HCT116 cells transfected with MIR22HG siRNA or control and in LoVo cells infected with lentivirus expressing MIR22HG or control. As to conditions: remark: other sources report otherwise.

The target of assay [2] is SMAD Family Member 2 (human (endogenous in HCT116 and LoVo)), Q15796. Described as above. As to conditions: remark: other sources report otherwise.

These are yes or no findings as the source states them, for the method shown. Binding seen in cells or lysates may run through a third protein. Some results given as binding are weak or reduced against the parent protein; the word gives no strength.

B1: SMAD Family Member 2, Q15796 1-467 (protein)
chain: MSSILPFTPPVVKRLLGWKKSAGGSGGAGGGEQNGQEEKWCEKAVKSLVKKLKKTGRLDELEKAITTQNCNTKCVTIPSTCSEIWGLSTPNTIDQWDTTGLYSFSEQTRSLDGRLQVSHRKGLPHVIYCRLWRWPDLHSHHELKAIENCEYAFNLKKDEVCVNPYHYQRVETPVLPPVLVPRHTEILTELPPLDDYTHSIPENTNFPAGIEPQSNYIPETPPPGYISEDGETSDQQLNQSMDTGSPAELSPTTLSPVNHSLDLQPVTYSEPAFWCSIAYYELNQRVGETFHASQPSLTVDGFTDPSNSERFCLGLLSNVNRNATVEMTRRHIGRGVRLYYIGGEVFAECLSDSAIFVQSPNCNQRYGWHPATVCKIPPGCNLKIFNNQEFAALLAQSVNQGFEAVYQLTRMCTIRMSFVKGWGAEYRRQTVTSTPCWIELHLNGPLQWLDKVLTQMGSPSVRCSSMS
Regarding B1, in assay [1], the binding entry was “binds”.

B2: SMAD Family Member 4, Q13485 1-552 (protein)
chain: MDNMSITNTPTSNDACLSIVHSLMCHRQGGESETFAKRAIESLVKKLKEKKDELDSLITAITTNGAHPSKCVTIQRTLDGRLQVAGRKGFPHVIYARLWRWPDLHKNELKHVKYCQYAFDLKCDSVCVNPYHYERVVSPGIDLSGLTLQSNAPSSMMVKDEYVHDFEGQPSLSTEGHSIQTIQHPPSNRASTETYSTPALLAPSESNATSTANFPNIPVASTSQPASILGGSHSEGLLQIASGPQPGQQQNGFTGQPATYHHNSTTTWTGSRTAPYTPNLPHHQNGHLQHHPPMPPHPGHYWPVHNELAFQPPISNHPAPEYWCSIAYFEMDVQVGETFKVPSSCPIVTVDGYVDPSGGDRFCLGQLSNVHRTEAIERARLHIGKGVQLECKGEGDVWVRCLSDHAVFVQSYYLDREAGRAPGDAVHKIYPSAYIKVFDLRQCHRQMQQQAATAQAAAAAQAAAVAGNIPGPGSVGGIAPAISLSAAAGIGVDDLRRLCILRMSFVKGWGPDYPRQSIKETPCWIEIHLHRALQLLDEVLHTMPIADPQPLD
With B2, the binding result in assay [2] is “binds”.

For the origin of these results see paper PMC7055097.
